The other results are listed elsewhere or left out. Most entries show no effect beyond the scatter of the controls.
compound: CN[C@@H]1C[C@H]2O[C@@](C)([C@@H]1OC)n1c3ccccc3c3c4c(c5c6ccccc6n2c5c31)C(=O)NC4 [staurosporine]; test: log2 fold change of tryptic peptide abundance, ligand vs vehicle (limited proteolysis) (log2 ratio); higher = more trypsin-susceptible (destabilized); conditions: ligand concentration: 20 uM; sample: K562 cleared lysate; digestion: 4 min, 22 C (HT-PELSA RT4min, Orbitrap Astral)

Amino acid sequences for entries named in this document (tags omitted). A change or cut given only in a name is not applied to a line headed by its entry.
UniProt P31153, whole entry, looked up: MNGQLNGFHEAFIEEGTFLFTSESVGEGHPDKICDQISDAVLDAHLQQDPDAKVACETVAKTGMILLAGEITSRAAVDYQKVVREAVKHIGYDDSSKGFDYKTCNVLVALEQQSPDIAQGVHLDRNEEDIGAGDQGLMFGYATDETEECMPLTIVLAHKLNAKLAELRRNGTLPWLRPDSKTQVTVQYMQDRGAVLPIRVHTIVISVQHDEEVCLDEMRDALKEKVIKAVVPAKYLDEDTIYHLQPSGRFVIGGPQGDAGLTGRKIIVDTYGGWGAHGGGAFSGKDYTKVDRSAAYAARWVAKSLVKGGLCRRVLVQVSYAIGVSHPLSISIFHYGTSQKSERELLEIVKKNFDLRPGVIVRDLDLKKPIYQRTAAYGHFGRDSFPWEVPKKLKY
UniProt P35711: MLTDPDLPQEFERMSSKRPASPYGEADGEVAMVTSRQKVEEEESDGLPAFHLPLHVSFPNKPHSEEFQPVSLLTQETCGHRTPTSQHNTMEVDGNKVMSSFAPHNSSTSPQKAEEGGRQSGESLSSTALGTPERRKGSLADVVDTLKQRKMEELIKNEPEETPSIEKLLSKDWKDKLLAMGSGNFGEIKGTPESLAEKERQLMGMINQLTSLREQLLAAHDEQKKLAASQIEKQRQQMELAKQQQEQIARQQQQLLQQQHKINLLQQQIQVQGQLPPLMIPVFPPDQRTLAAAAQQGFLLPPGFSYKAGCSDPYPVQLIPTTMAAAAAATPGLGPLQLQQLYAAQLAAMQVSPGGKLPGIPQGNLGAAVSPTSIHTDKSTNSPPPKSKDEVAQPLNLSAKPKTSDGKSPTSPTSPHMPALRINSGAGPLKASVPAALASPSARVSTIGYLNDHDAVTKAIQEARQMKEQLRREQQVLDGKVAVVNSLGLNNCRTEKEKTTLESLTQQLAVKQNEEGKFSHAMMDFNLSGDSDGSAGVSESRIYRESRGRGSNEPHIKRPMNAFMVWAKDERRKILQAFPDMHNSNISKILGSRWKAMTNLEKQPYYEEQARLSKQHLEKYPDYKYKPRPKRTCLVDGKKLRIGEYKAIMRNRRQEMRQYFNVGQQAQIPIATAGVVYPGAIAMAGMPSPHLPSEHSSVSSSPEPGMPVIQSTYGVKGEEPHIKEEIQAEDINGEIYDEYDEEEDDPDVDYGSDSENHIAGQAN
UniProt P34949: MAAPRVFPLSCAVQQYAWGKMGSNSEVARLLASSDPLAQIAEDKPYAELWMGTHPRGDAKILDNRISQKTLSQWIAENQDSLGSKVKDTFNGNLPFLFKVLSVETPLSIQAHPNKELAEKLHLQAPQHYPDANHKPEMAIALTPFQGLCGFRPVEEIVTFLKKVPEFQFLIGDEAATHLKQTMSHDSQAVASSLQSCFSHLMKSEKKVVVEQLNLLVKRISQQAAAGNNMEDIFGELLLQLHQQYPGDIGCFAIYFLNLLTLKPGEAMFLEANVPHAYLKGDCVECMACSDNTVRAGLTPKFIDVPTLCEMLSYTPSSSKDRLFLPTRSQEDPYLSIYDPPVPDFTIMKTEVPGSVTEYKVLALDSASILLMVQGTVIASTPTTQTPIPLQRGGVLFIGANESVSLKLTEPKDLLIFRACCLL
UniProt P28715: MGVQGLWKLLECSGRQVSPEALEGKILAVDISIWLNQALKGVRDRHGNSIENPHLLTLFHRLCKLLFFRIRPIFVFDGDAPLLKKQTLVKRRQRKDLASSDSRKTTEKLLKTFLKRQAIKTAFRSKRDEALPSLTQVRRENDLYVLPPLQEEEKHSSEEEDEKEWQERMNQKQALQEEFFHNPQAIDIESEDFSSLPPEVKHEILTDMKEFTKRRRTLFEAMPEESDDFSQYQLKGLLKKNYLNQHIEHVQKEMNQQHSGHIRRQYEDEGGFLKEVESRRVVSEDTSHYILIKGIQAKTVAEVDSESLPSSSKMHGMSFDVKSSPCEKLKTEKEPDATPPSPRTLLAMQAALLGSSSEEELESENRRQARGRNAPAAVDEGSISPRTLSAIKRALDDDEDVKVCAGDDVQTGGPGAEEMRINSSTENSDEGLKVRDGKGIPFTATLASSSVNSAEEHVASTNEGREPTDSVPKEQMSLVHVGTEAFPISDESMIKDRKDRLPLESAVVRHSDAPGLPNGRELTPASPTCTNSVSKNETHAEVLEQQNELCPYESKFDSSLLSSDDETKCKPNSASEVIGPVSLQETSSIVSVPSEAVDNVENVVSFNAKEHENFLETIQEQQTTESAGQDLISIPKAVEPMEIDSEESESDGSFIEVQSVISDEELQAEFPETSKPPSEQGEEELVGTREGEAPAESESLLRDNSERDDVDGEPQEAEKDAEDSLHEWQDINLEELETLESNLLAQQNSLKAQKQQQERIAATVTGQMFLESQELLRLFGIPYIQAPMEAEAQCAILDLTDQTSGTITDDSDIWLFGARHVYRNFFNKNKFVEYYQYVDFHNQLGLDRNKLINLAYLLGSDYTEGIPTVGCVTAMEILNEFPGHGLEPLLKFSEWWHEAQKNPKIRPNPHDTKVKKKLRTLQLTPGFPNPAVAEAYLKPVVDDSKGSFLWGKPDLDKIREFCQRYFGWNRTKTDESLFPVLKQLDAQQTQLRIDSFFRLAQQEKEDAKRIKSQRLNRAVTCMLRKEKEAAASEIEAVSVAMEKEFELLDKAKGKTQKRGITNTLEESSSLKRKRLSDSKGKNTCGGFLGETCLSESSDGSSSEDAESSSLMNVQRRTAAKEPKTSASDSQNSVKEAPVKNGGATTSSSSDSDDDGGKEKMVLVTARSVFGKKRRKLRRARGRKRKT
UniProt P36508: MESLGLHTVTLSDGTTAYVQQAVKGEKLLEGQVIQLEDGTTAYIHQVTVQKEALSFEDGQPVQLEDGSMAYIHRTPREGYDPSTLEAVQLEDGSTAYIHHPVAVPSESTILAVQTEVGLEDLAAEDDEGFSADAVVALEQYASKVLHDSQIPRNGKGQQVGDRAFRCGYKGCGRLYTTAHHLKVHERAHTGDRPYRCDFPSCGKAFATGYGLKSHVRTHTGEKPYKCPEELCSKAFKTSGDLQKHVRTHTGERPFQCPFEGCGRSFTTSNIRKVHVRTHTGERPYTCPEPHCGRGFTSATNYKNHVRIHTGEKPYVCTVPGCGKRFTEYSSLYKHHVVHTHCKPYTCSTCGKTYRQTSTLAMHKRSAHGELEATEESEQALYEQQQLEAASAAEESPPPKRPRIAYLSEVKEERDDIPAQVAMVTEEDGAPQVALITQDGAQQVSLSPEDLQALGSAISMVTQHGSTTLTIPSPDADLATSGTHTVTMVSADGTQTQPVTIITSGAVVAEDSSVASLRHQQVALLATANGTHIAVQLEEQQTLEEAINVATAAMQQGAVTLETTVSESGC
UniProt P30049: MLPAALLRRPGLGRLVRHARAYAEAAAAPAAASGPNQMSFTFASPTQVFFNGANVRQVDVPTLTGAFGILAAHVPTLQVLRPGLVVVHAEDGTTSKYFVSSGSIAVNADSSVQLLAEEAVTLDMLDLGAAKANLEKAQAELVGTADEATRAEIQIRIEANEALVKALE
UniProt P40692: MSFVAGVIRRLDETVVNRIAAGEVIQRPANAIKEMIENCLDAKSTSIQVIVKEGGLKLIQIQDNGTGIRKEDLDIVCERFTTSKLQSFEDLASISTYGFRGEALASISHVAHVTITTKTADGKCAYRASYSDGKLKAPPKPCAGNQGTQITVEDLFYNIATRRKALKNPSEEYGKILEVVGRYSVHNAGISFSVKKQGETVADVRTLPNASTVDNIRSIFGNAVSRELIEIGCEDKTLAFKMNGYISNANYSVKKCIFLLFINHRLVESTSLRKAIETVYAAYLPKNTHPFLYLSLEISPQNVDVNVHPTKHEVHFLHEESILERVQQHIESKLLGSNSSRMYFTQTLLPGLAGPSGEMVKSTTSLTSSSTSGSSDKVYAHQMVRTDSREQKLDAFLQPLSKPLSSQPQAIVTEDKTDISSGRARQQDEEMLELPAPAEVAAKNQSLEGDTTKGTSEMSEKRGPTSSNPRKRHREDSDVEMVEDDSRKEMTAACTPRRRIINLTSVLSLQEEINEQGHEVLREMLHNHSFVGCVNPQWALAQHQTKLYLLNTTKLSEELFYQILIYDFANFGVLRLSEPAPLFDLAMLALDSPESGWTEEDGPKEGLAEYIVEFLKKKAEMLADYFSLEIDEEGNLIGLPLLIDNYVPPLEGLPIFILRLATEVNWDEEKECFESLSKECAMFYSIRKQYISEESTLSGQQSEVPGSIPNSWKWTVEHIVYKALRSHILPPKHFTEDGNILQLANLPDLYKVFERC
UniProt P42126: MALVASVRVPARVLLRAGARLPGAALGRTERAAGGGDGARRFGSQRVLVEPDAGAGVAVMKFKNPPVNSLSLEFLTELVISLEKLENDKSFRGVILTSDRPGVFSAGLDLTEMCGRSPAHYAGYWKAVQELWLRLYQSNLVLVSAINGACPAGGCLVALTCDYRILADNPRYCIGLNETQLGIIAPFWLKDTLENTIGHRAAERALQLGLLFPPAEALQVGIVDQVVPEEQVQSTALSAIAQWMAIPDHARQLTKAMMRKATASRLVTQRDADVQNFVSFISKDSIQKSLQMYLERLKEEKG

**Q.** With “MAT2A (peptide sequence: TAAYGHFGR, peptide start residue: 374) (UniProt P31153)” as the target, how does the log2 fold change read?
**A.** The log2 fold change was 0.19.

**Q.** “SOX5 (peptide sequence: RTCLVDGK, peptide start residue: 631) (UniProt P35711)” was tested. Which log2 fold change did it give?
**A.** Its log2 fold change is -0.544.

**Q.** Which log2 fold change does the source give for “MPI (peptide sequence: TEVPGSVTEYK, peptide start residue: 350) (UniProt P34949)” here?
**A.** The log2 fold change was 0.448.

**Q.** For “ERCC5 (peptide sequence: IRPNPHDTK, peptide start residue: 905) (UniProt P28715)”, which log2 fold change is on record?
**A.** The log2 fold change was 0.822.

**Q.** How did the log2 fold change turn out when “ZNF76 (peptide sequence: FTEYSSLYK, peptide start residue: 398) (UniProt P36508)” was run?
**A.** Its log2 fold change is -0.132.

**Q.** For “UniProt P30049 (peptide sequence: IEANEALVK, peptide start residue: 157)”, which log2 fold change is on record?
**A.** Its log2 fold change is 0.0372.

**Q.** Which log2 fold change does the source give for “MLH1 (peptide sequence: ELIEIGCEDK, peptide start residue: 227) (UniProt P40692)” here?
**A.** The log2 fold change was -0.251.

**Q.** For “UniProt P42126 (peptide sequence: DTLENTIGHR, peptide start residue: 191)”, which log2 fold change is on record?
**A.** The log2 fold change was 0.57.

Reference: the supplement of paper PMC12819154, “High-throughput peptide-centric local stability assay extends protein–ligand identification to membrane proteins, tissues and bacteria” (Nature Structural & Molecular Biology, 2025)
